Here are results for 37 compounds from PubChem BioAssay AID1487 (National Center for Advancing Translational Sciences (NCATS), 2009).

This experiment in a line: qHTS Assay for Modulators of Lamin A Splicing. Conditions: HeLa LMNA splicing GFP/RFP minigene ratio, 48 h. The gist of the method: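 S3 HeLa stable clones carrying a lamin A-EGFP splicing minigene plus DsRed2 were seeded at 600 cells/well in Opti-MEM with 2% FBS, pin-dosed and incubated 48 h at 37°C. Acumen cytometry (488 nm) gave the GFP/RFP total-intensity ratio.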
[1] abbreviates: measured here: GFP splicing reporter channel.
Where [2] appears, read: measured here: RFP viability control channel.

This is one part of the list. Shown are side measurements of this screen, not its main read-out; they come without a call. The list favours compounds with an active or inconclusive main result. Potencies come from curve fits of mixed quality, noted in brackets.

Broadly, the AC50 is the concentration giving half of the maximal activity seen. As to `CCOc1ccc(/C=N/OCC(=O)NC(c2ccccc2)c2ccccc2)cc1`, the concentration at half-maximal activity (AC50) runs as follows: under setting [1], 11.2 µM [rising, partial curve, poor fit]; under setting [2], 14.1 µM [rising, partial curve].

Consider `CCC1CCCCN1C(=O)CSc1nc2c([nH]c3ccccc32)c(=O)n1-c1cccc(OC)c1` (stereo unspecified), for which the AC50 under setting [2] was 35.5 µM [rising, single point].

For `COc1ccccc1CNC(=O)CSc1nnc2ccc(-c3cccnc3)nn12`, the AC50 under setting [2] was 4.47 µM [falling, partial curve].

With `Cc1cc(Cl)c(S(=O)(=O)Nc2ccc3c(c2)OCCO3)cc1OCC(=O)NC1CCCCC1`, the AC50 under setting [2] was 31.6 µM [rising, single point].

As to `COc1ccc(NC(=O)c2ccc(-c3ccccc3C(F)(F)F)o2)cc1`, the AC50 was 12.6 µM [rising, single point] under setting [1] and 17.8 µM [rising, partial curve] under setting [2].

As to `COC(=O)c1ccc(-c2noc(CN(Cc3ccncc3)CC3CCCO3)n2)cc1` (stereo unspecified), the AC50 is 35.5 µM [falling, single point] under setting [1] and 6.31 µM [falling, partial curve, poor fit] under setting [2].

`COc1ccc(S(=O)(=O)NCc2ccco2)c2ccccc12`: the AC50 under setting [1] is 7.94 µM [rising, partial curve].

With `COc1ccc(OCC(=O)Nn2c(-c3ccc(OC)cc3)nc3ccccc3c2=O)cc1`, the AC50 reads like this: under setting [1], 31.6 µM [rising, single point]; under setting [2], 35.5 µM [rising, single point].

`CS(=O)(=O)N1CCN(c2ccc(NC(=S)NC(=O)c3ccc4c(c3)OCO4)cc2)CC1`: the half-maximal activity concentration (AC50) under setting [1] is 0.141 µM [falling, partial curve].

`Cn1ccc2c(OCC(=O)NCc3ccccc3Cl)cccc2c1=O`: under setting [2], the concentration at half-maximal activity (AC50) was 35.5 µM [rising, partial curve, poor fit].

Turning to `CC(C(N)=O)N1C(=O)c2cccc3cccc1c23` (stereo unspecified), under setting [2], the AC50 is 8.91 µM [falling, partial curve, poor fit].

On to `Cc1ccc2nc(Cl)c(CN(Cc3cccs3)C(=O)C3CC3)cc2c1`, for which the AC50 under setting [2] is 35.5 µM [rising, single point].

For the compound `CCOc1ccc(C(=O)Nc2ccccc2C#N)cc1[N+](=O)[O-]`, the AC50 under setting [2] is 10 µM [rising, single point].

Turning to `CCc1ccc(NC(=O)C(=O)NCC(c2cccnc2)N2CCN(C)CC2)cc1` (stereo unspecified), the AC50 by setting is: under setting [1], 25.1 µM [falling, partial curve]; under setting [2], 28.2 µM [falling, partial curve].

Turning to `Cc1csc2nc(CNC(=O)c3cccc(C(F)(F)F)c3)cn12`, the concentration at half-maximal activity (AC50) under setting [1] is 35.5 µM [rising, single point].

In the case of `O=C(COC(=O)c1cccc(C(F)(F)F)c1)NCc1ccccc1`, the AC50 under setting [2] was 0.00562 µM [falling, full curve, poor fit].

Regarding `CCOC(=O)Nc1ccc2c(c1)Sc1ccccc1N2C(=O)CCN1CCOCC1`, the half-maximal activity concentration (AC50) under setting [2] was 14.1 µM [rising, single point].

With `O=C(COc1ccc(Cl)cc1)N1CCN(c2ccc([N+](=O)[O-])c(N3CCOCC3)c2)CC1`, under setting [2], the AC50 is 35.5 µM [rising, single point].

Turning to `CC(=O)C(Cc1ccc(Cl)nc1)(Cc1ccc(Cl)nc1)C(C)=O`, the AC50 under setting [1] was 3.55 µM [rising, full curve].

Regarding `CC(C)CNC(=O)c1ccccc1SCC(=O)NC12CC3CC(CC(C3)C1)C2`, the AC50 under setting [2] is 35.5 µM [rising, single point].

Regarding `Cc1cccc(C(=O)NC(=S)Nc2ccc(S(=O)(=O)N3CCCCC3)cc2)c1`, the AC50 is, setting by setting: under setting [1], 11.2 µM [rising, single point]; under setting [2], 25.1 µM [rising, single point].

Consider `Cc1ccc(-c2noc(CSc3nnc(-c4ccccc4)n3C)n2)cc1`, for which the concentration at half-maximal activity (AC50) under setting [2] was 35.5 µM [rising, single point].

For `CC1(C)SC2[C@@H](N=CN3CCCCCC3)C(=O)N2[C@H]1C(=O)O` (stereo partly specified), the concentration at half-maximal activity (AC50) is 0.000891 µM [falling, full curve, poor fit] under setting [1] and 0.00316 µM [falling, full curve] under setting [2].

As for `O=C(COC(=O)CCc1c[nH]c2ccccc12)NCc1ccccc1`, the half-maximal activity concentration (AC50) under setting [2] was 35.5 µM [rising, single point].

For `Cc1ccc(-c2nc(CS(=O)(=O)CC(=O)N3CC(C)CC(C)C3)c(C)o2)cc1` (stereo unspecified), the AC50 under setting [1] was 31.6 µM [rising, single point] and the AC50 under setting [2] was 35.5 µM [rising, single point].

As to `O=C(c1ccc(Cl)cc1)c1ccc(OCC(O)CN2CCOCC2)cc1` (stereo unspecified), the AC50 under setting [2] was 20 µM [rising, single point].

For the compound `Cc1cc(C)cc(-n2c(SCC(=O)NCC3CCCO3)nc3c([nH]c4ccccc43)c2=O)c1` (stereo unspecified), the AC50 was 3.16 µM [falling, partial curve] under setting [1] and 0.158 µM [falling, partial curve] under setting [2].

`Cc1cc(C)cc(N(C(=O)CNS(=O)(=O)c2ccccc2)C(C(=O)NCc2ccccc2)c2ccc(C)o2)c1` (stereo unspecified): the AC50 under setting [2] is 14.1 µM [rising, single point].

For the compound `Cn1cnc2c1c(=O)[nH]c(=O)n2C`, under setting [1], the AC50 is 0.794 µM [rising, full curve, poor fit].

As for `CCCC(=O)C1=C(c2ccc(C)c(C)c2)N(C(=O)CCC)n2c(CC)nnc2S1`, the AC50 under setting [2] was 12.6 µM [rising, partial curve].

On to `Cc1ccc2nc(C)c(C(=O)N/N=C/c3cccs3)n2c1`, for which the AC50 under setting [2] was 20 µM [rising, single point].

Turning to `O=C(Cn1cnc2c(cnn2-c2ccccc2)c1=O)N1CCOCC1`, the AC50 under setting [2] was 31.6 µM [rising, single point].

Take `COc1cccc(N(C(=O)c2ccco2)c2nc(-c3sc(NC(=O)c4ccco4)nc3C)cs2)c1`: under setting [2], the AC50 was 25.1 µM [falling, partial curve].

As for `CC(=O)Nc1ccc(S(=O)(=O)NCCSCc2ccco2)cc1`, under setting [2], the AC50 was 20 µM [rising, single point].

As to `N#C/C(=C\c1c[nH]c2ccccc12)C(=O)c1ccc(O)c(O)c1`, the AC50 under setting [1] was 15.8 µM [falling, partial curve, poor fit].

As to `Cc1ccccc1-c1nc(S(=O)(=O)c2ccc(Br)cc2)c(NCc2cccnc2)o1`, the AC50 under setting [1] is 35.5 µM [rising, single point].

For the compound `CCn1cc(-c2ccnc3cc(C(=O)O)nn23)c(C)n1`, the AC50 under setting [1] was 3.55 µM [rising, partial curve].
